Test results published in patent US20230180804A1, “FLAVOR COMPOSITION, AND FOOD AND BEVERAGE” (TAKASAGO INTERNATIONAL CORPORATION, priority 2020, published 2023).

Assays:
[1] = Sensory evaluation of p-cresol odor masking in p-cresol-containing citrus-flavored beverage; conditions: beverage with 50 ppb p-cresol, average score of 7 panelists, scale 0-4
Experimental: To 2 g of lemon flavor obtained by making lemon oil into an essence, purified water was added to adjust the total amount to 1000 ml. To this citrus-flavored beverage, p-cresol adjusted to a concentration of 1% by mass with 95% ethanol was added to 50 ppb in the citrus-flavored beverage. To this p-cresol-containing citrus-flavored beverage, 1-oxacycloheptadecan-7-en-2-one was added at the concentrations presented in Table 1 to confirm the p-cresol odor intensity (masking effect) and the influence on the citrus flavor of each sample.
For the test, seven skilled panelists were selected to perform sensory evaluation. The p-cresol odor intensity of the p-cresol-containing citrus-flavored beverage without added l-oxacycloheptadecan-7-en-2-one was determined as “Rating: 4,” and the p-cresol odor intensity of the p-cresol-free citrus-flavored beverage was determined as “Rating: 0,” and the p-cresol odor intensity (masking effect) of each sample was relatively evaluated according to the following evaluation criteria.
In addition, the influence of the citrus-flavored beverage on the citrus flavor was evaluated absolutely according to the following evaluation criteria for the presence or absence of off- flavor other than p-cresol odor and citrus flavor (Off-Flavor Intensity).
The results are as in Table 1, presenting the average score of the evaluation results for each panelist.

[2] = Sensory evaluation of p-cresol odor masking in p-cresol-containing citrus-flavored confectionery (tablet); conditions: tablet with 200 ppb p-cresol, average score of 6 panelists, scale 0-4
Experimental: Lemon cold-pressed oil was added to the tablet having the composition presented in Table A at a concentration of 1 % by mass, and medium chain fatty acid triglycerides (MCT) was used to adjust p-cresol to a concentration of 0.1%, which was further added so as to reach 200 ppb in the citrus flavored confectionery. To this p-cresol-containing citrus-flavored confectionery, 1-oxacycloheptadecan-7-en-2-one was added at the concentrations presented in Table 12, and then tableting was performed to confirm the p-cresol odor intensity (masking effect) and the influence on the citrus flavor of each sample.
Six skilled panelists were selected to perform the same sensory evaluation as in Example 1. The results are as in Table 12, presenting the average score of the evaluation results for each panelist.

SMILES | Off-Flavor Intensity ([1]; 1 ppb added) [points] | Off-Flavor Intensity ([1]; 1 ppm added) [points] | Off-Flavor Intensity ([1]; 10 ppb added) [points] | Off-Flavor Intensity ([1]; 10 ppm added) [points] | Off-Flavor Intensity ([1]; 10 ppt added) [points] | Off-Flavor Intensity ([1]; 100 ppb added) [points] | Off-Flavor Intensity ([1]; 100 ppm added) [points] | Off-Flavor Intensity ([1]; 100 ppt added) [points] | Off-Flavor Intensity ([1]; 0.01 ppt added) [points] | Off-Flavor Intensity ([1]; 0.1 ppt added) [points] | Off-Flavor Intensity ([1]; 1 ppt added) [points] | Off-Flavor Intensity ([2]; 4 ppb added) [points] | Off-Flavor Intensity ([2]; 40 ppb added) [points] | Off-Flavor Intensity ([2]; 40 ppt added) [points] | Off-Flavor Intensity ([2]; 400 ppb added) [points] | Off-Flavor Intensity ([2]; 400 ppt added) [points] | Off-Flavor Intensity ([1]; 0.001 ppt added) [points]
O=C/C=C/c1ccccc1 [Cinnamic Aldehyde, cinnamic aldehyde] | 0.9 | 2.1 | 1.1 | 2.6 | 0.3 | 1.9 | 3.7 | 0.4 |  |  |  |  |  |  |  |  | 
O=C1CCCCCCCCCCCCCCO1 [Pentalide, pentalide] | 2.7 |  | 3.3 |  | 1.7 | 3.7 |  | 2.3 | 0.4 | 0.9 | 1.4 | 1.5 | 1.8 | 1.0 | 2.8 | 1.3 | 
O=C1CCCCCC=CCCCCCCCCO1 [1-Oxacycloheptadecan-8-En-2-One, 1-oxacycloheptadecan-8-en-2-one] | 2.9 |  | 3.4 |  | 1.6 | 3.7 |  | 2.3 | 0.3 | 0.7 | 0.9 | 1.0 | 1.2 | 0.8 | 2.0 | 1.0 | 
CC1(C)CCC[C@]2(C)[C@H]3CC(=O)O[C@]3(C)CC[C@@H]12 [Sclareolide, sclareolide] | 0.9 | 2.6 | 1.3 | 3.4 | 0.1 | 2.0 |  | 0.3 |  |  |  |  |  |  |  |  | 
C=C1CC[C@H]2O[C@]2(C)CC[C@@H]2[C@@H]1CC2(C)C [β-caryophyllene Oxide, β-caryophyllene oxide] | 1.3 | 2.6 | 1.6 | 3.4 | 0.6 | 2.0 | 3.7 | 1.0 |  |  |  |  |  |  |  |  | 
CCCCCC1CC=CC(=O)O1 (stereo not shown) [δ-2-Decenolactone, δ-2-decenolactone] | 1.4 | 3.4 | 2.0 | 3.6 | 0.6 | 2.7 |  | 1.1 |  |  | 0.1 |  |  |  |  |  | 
CCc1occc(=O)c1O [Ethyl Maltol, ethyl maltol] | 0.6 | 2.1 | 1.3 | 2.4 | 0.3 | 1.9 | 3.9 | 0.6 |  |  |  |  |  |  |  |  | 
C[C@@H]1CCCCCCCCCCCCC(=O)C1 [Muscone, muscone] | 2.7 |  | 3.6 |  | 2.0 | 3.9 |  | 2.6 | 0.9 | 1.1 | 1.7 |  |  |  |  |  | 0.4
O=C1CCCCCCC/C=C\CCCCCCC1 [Civetone, civetone] | 2.9 |  | 3.7 |  | 2.1 | 3.9 |  | 2.7 | 0.9 | 1.6 | 2.0 |  |  |  |  |  | 0.7
O=C1CCCCC=CCCCCCCCCCO1 [1-Oxacycloheptadecan-7-En-2-One, 1-oxacycloheptadecan-7-en-2-one] | 2.9 |  | 3.6 |  | 1.4 | 3.9 |  | 2.0 | 0.4 | 0.7 | 1.0 | 1.5 | 1.7 | 1.0 | 2.5 | 1.3 | 
O=C1CCCCCCC/C=C\CCCCCCO1 [Isoambrettolide, isoambrettolide] | 2.9 |  | 3.3 |  | 2.0 | 3.6 |  | 2.6 | 0.6 | 1.3 | 1.6 | 1.3 | 1.5 | 1.2 | 2.3 | 1.2 | 
